Source: the supplement of paper PMC7666118
This is one part of the list.

Sequences of proteins named here, by UniProt entry; tags and fusion partners are left off. A change or cut given only in a name is not applied to a line headed by its entry.
UniProt O60293: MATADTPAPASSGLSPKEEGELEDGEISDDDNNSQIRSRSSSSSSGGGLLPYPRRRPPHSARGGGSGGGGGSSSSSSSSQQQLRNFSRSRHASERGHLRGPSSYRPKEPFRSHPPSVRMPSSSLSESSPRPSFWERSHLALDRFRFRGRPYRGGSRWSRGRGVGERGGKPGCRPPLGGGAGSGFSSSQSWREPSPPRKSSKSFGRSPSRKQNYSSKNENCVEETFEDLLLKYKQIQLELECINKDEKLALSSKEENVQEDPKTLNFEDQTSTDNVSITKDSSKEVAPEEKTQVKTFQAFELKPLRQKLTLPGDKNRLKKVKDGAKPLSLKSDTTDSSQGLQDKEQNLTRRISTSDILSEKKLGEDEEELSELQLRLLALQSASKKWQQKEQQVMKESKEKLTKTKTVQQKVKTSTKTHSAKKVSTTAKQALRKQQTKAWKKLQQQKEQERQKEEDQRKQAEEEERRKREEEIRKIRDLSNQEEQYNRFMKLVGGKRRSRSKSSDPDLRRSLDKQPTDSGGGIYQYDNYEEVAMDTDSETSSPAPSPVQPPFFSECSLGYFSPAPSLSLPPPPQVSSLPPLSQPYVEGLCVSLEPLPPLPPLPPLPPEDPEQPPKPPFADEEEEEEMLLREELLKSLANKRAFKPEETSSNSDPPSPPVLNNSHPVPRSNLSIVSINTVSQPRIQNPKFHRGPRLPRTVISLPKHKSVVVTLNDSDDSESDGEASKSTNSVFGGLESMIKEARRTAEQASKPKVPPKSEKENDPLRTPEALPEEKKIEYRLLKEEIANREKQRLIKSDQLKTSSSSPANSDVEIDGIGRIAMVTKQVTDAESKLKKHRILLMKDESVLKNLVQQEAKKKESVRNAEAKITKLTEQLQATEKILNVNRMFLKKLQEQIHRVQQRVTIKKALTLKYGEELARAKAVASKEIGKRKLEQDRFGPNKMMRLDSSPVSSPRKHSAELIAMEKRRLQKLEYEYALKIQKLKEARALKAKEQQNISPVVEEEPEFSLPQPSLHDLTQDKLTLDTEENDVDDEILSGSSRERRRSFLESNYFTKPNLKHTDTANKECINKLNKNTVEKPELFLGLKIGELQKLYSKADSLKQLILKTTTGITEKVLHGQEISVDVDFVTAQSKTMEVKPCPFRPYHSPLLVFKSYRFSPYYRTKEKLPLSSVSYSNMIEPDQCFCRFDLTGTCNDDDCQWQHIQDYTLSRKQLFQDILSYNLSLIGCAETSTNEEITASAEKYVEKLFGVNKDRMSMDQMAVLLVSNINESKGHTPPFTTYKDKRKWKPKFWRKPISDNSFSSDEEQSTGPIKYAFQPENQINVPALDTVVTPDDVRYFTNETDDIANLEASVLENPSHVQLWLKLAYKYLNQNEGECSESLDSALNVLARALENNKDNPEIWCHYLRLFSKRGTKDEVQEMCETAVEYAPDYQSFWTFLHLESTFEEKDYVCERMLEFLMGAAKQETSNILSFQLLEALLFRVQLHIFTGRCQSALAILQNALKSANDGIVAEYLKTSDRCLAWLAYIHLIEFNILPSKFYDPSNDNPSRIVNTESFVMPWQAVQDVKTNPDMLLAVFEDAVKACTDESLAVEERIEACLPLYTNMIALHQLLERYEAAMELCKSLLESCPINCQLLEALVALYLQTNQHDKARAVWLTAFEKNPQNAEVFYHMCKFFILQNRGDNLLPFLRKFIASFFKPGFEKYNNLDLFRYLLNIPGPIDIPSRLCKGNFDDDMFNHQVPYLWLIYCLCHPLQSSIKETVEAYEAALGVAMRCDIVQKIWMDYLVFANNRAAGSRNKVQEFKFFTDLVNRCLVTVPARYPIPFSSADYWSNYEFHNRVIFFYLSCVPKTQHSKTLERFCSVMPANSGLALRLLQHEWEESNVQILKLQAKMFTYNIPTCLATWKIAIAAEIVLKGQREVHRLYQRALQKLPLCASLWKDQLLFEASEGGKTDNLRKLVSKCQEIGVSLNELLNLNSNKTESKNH
UniProt Q9H9H4: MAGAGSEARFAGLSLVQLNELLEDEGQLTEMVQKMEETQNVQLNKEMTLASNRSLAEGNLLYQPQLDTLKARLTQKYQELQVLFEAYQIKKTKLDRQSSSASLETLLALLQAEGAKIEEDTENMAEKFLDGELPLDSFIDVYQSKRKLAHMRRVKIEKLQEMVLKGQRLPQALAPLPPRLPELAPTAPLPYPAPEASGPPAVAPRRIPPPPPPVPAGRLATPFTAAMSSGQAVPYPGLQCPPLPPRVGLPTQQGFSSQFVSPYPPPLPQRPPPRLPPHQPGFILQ
UniProt Q96S15: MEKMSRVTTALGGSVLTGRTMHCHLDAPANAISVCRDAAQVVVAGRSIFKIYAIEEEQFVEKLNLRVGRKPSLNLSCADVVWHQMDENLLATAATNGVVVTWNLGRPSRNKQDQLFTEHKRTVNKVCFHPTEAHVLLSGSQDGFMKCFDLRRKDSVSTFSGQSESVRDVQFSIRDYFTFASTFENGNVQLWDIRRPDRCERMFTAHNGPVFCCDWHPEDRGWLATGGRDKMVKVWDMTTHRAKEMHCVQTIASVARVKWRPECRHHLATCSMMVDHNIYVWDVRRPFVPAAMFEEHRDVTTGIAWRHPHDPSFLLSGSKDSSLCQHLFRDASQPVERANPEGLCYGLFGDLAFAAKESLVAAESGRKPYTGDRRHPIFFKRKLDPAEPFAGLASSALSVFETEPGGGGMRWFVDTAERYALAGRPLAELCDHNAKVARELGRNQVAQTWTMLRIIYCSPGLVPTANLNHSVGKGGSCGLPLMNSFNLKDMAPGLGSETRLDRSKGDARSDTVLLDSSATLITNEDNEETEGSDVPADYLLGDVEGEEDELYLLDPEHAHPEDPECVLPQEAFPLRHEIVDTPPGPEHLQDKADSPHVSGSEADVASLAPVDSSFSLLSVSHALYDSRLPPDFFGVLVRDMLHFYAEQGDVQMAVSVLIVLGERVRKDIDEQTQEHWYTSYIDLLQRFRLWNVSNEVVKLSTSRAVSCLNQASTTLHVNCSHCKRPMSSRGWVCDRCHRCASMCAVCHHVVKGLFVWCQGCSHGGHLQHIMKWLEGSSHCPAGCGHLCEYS
UniProt Q7Z5K2: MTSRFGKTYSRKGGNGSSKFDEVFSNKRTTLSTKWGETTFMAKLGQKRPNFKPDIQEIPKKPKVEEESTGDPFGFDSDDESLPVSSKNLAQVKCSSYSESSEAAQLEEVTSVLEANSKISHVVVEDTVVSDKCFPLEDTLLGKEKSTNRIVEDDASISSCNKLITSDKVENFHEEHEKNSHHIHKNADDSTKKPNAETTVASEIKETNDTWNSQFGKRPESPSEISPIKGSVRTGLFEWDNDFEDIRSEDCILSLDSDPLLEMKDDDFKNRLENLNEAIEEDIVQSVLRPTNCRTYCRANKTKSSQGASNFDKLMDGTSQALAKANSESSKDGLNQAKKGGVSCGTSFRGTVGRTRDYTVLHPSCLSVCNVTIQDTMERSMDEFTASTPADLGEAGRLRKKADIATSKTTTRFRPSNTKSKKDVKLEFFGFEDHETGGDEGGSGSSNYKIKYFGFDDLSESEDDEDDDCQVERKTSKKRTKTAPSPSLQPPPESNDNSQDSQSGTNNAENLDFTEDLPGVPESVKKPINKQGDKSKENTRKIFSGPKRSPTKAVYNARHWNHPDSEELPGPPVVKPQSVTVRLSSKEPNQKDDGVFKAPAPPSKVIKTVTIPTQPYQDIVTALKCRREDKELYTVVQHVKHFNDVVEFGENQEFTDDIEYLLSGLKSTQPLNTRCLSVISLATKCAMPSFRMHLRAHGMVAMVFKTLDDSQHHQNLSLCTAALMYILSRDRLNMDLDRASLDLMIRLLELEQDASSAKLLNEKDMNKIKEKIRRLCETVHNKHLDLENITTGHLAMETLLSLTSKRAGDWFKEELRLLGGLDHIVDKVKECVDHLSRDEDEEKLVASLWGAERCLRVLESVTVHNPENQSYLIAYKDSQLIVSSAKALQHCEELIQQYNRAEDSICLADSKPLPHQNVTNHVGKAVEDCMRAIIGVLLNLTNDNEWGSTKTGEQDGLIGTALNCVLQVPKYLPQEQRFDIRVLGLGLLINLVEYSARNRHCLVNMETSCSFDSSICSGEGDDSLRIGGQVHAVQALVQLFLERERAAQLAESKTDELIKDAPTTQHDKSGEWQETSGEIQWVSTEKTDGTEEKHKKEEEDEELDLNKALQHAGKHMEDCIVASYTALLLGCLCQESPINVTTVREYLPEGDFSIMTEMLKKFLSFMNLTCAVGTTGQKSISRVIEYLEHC
UniProt Q9NQW7: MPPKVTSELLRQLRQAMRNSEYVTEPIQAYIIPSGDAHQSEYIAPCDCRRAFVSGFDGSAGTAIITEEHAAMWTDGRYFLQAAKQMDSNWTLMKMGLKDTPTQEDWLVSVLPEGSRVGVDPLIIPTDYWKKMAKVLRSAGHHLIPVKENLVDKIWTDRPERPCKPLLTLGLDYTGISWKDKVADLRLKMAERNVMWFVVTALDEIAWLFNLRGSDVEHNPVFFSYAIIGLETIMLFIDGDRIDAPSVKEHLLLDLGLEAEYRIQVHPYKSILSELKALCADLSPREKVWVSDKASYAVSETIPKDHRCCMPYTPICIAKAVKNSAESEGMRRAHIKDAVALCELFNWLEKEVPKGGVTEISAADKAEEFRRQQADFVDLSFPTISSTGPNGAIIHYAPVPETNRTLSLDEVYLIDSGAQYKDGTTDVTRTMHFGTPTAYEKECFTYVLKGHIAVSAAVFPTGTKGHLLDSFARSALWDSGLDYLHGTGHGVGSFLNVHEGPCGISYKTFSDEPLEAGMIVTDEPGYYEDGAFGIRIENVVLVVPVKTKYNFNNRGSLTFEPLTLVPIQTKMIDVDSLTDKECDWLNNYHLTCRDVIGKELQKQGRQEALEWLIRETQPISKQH
UniProt P51809, whole entry: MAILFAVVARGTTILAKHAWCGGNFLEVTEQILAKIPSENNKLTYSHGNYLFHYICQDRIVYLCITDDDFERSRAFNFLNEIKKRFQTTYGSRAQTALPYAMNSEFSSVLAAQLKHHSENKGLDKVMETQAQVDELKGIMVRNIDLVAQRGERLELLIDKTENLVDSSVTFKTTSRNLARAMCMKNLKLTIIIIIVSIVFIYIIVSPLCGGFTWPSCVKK
UniProt Q9Y277: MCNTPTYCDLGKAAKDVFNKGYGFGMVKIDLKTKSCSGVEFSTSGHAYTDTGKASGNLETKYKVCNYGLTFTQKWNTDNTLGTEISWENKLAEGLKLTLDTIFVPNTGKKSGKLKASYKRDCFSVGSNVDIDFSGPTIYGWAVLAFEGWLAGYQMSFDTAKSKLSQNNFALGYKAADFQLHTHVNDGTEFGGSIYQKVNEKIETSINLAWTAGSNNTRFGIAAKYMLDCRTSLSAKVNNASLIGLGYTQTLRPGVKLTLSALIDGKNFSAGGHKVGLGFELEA
UniProt Q8TED0: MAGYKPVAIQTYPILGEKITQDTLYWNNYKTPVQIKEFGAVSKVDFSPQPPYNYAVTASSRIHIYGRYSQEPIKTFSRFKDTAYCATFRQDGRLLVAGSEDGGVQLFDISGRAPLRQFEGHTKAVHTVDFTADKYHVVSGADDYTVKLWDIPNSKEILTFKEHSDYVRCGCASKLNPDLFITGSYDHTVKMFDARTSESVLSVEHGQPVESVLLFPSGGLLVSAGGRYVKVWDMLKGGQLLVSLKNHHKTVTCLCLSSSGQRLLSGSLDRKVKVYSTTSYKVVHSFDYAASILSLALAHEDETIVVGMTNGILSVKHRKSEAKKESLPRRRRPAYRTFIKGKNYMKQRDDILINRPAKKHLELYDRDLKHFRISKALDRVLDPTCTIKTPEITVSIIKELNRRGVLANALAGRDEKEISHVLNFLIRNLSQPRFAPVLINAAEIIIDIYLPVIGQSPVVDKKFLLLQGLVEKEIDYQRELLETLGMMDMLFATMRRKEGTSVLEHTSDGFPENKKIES
UniProt P18887, whole entry: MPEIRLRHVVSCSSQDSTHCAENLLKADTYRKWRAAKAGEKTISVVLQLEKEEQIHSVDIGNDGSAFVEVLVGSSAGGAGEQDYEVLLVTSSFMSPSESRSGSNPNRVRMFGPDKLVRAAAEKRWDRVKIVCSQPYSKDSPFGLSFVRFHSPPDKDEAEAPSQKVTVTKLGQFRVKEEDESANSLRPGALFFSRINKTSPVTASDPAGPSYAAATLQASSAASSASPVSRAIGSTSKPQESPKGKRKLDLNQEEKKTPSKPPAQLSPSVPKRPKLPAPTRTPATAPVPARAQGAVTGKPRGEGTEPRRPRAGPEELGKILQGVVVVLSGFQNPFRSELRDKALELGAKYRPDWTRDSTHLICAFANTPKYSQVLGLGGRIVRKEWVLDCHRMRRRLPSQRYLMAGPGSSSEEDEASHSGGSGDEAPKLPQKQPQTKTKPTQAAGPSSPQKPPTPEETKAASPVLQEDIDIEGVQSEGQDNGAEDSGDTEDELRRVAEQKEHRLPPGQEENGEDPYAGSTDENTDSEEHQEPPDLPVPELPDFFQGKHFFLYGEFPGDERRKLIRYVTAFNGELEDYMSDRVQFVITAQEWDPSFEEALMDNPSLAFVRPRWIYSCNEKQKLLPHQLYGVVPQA

compound: COc1ccc(Cn2ccc3ccc(C(=O)NO)cc32)cc1; test: dose-dependent thermal stabilisation call (2D-TPP, DLPTP, 10% FDR) (binary (1 = stabilised)); higher = stabilised by the compound; conditions: system: HL-60 intact cells; concentration range 0.04-10 µM

Target	dose-dependent thermal stabilisation call
ZC3H13 (UniProt Q5T200)	inactive: 0
VPS8 (UniProt Q8N3P4)	inactive: 0
ZFC3H1 (UniProt O60293)	inactive: 0
VPS13B (UniProt Q7Z7G8)	inactive: 0
WDR54 (UniProt Q9H977)	inactive: 0
WDR41 (UniProt Q9HAD4)	inactive: 0
WDR23 (UniProt Q8TEB1)	inactive: 0
WDR77 (UniProt Q9BQA1)	inactive: 0
VPS37B (UniProt Q9H9H4)	inactive: 0
ZNF207 (UniProt O43670)	inactive: 0
ZDHHC18 (UniProt Q9NUE0)	inactive: 0
WDR24 (UniProt Q96S15)	inactive: 0
WAPAL (UniProt Q7Z5K2)	inactive: 0
XPNPEP1 (UniProt Q9NQW7)	inactive: 0
YIPF4 (UniProt Q9BSR8)	inactive: 0
VAPB (UniProt O95292)	inactive: 0
ZCCHC9 (UniProt Q8N567)	inactive: 0
VAMP7 (UniProt P51809)	inactive: 0
WASF2 (UniProt Q9Y6W5)	inactive: 0

7 entries from above, reformatted.
Target,dose-dependent thermal stabilisation call
WAPAL (UniProt Q7Z5K2),inactive: 0
XPNPEP1 (UniProt Q9NQW7),inactive: 0
YIPF4 (UniProt Q9BSR8),inactive: 0
VAPB (UniProt O95292),inactive: 0
ZCCHC9 (UniProt Q8N567),inactive: 0
VAMP7 (UniProt P51809),inactive: 0
WASF2 (UniProt Q9Y6W5),inactive: 0

More results

Target	dose-dependent thermal stabilisation call
VPS16 (UniProt Q9H269)	inactive: 0
WDR11 (UniProt Q9BZH6)	inactive: 0
VDAC3 (UniProt Q9Y277)	inactive: 0
ZNF187 (UniProt Q16670)	inactive: 0
XYLT2 (UniProt Q9H1B5)	inactive: 0
YIF1A (UniProt O95070)	inactive: 0
UTP15 (UniProt Q8TED0)	inactive: 0
WDR82 (UniProt Q6UXN9)	inactive: 0
ZNF217 (UniProt O75362)	inactive: 0
USP9X (UniProt Q93008)	inactive: 0
WDR1 (UniProt O75083)	inactive: 0
VPS37C (UniProt A5D8V6)	inactive: 0
VAV1 (UniProt P15498)	inactive: 0
XPO4 (UniProt Q9C0E2)	inactive: 0
VAT1 (UniProt Q99536)	inactive: 0
YTHDF2 (UniProt Q9Y5A9)	inactive: 0
XRCC1 (UniProt P18887)	inactive: 0
YRDC (UniProt Q86U90)	inactive: 0
